Data as given in PubChem BioAssay AID1159578 (Peter MacCallum Cancer Centre, 2015).
This is a random part of about 18,000 deposited reagents. About 1,030 of all reagents (5.7%) were called active. 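Inactive calls also include pools with fewer than 3300 nuclei, whose migration was not assessed.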 Raw values are not corrected between plates. Unmarked entries are inactive. Reagents against one gene are numbered here. Not all columns of the deposit are shown.

- Test: 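Knock-downs that alter how fast lymphatic endothelial cells migrate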 (primary screen)
- Cell system: human lymphatic endothelial cells
- Knock-down reagent: siRNA pool against human genes, 40 nM
- Duration: 48 h after transfection
- Measured: 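Cells stained with dye and imaged after a scratch; covered wound area and nuclei counted, duplicates averaged, migration set against mock wells and turned into a robust z-score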
- Direction: migration robust z-score: higher = faster migration into the scratch; nuclei per well: higher = more cells in the well
- Rule for the call: 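Pools averaging fewer than 3300 nuclei are never called; remaining pools count as changed when migration robust z lies outside -2 to 2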
- Calls: active = migration changed; inactive = no migration change, or too few cells

Target gene	pool no.	migration robust z-score	nuclei per well, duplicate mean
MBTD1 (mbt domain containing 1)	1	-0.24	5735
USF1 (upstream transcription factor 1)	1	-0.83	5781
VHLL (VHL like)	1	0.3	5677
VPS13B (vacuolar protein sorting 13 homolog B)	1	0.05	6148
RFX7 (regulatory factor X7)	1	0.26	5424
RIMS2 (regulating synaptic membrane exocytosis 2)	1	-0.48	4431
CXCR6 (C-X-C motif chemokine receptor 6)	1	0	6302
SP5 (Sp5 transcription factor)	1	0.34	5378
FOXD4L3 (forkhead box D4 like 3)	1	1.09	5162
FOXD4L3 (forkhead box D4 like 3)	2	1.37	5702
CYTH1 (cytohesin 1)	1	-0.19	5684
ZNF561 (zinc finger protein 561)	1	0.48	5476
CLCN5 (Cl-/H+ antiporter 5)	1	0.34	5774
GFPT1 (glutamine--fructose-6-phosphate transaminase 1)	1	0.57	6132
ENTPD8 (ectonucleoside triphosphate diphosphohydrolase 8)	1	-0.02	4701
EGR4 (early growth response 4)	1	-0.78	4674
POU5F1 (POU class 5 homeobox 1)	1	0	4896
MYCN (MYCN proto-oncogene, bHLH transcription factor)	1	-0.35	7467
SMTN (smoothelin)	1	1.87	5052
SLC25A11	1	-0.83	4044
HHIPL2 (HHIP like 2)	1	0.57	6603
S100A16 (S100 calcium binding protein A16)	1	1.1	5550
CLXN (calaxin)	1	-0.84	6995
CHCHD6 (coiled-coil-helix-coiled-coil-helix domain containing 6)	1	0.92	6138
GLP2R (glucagon like peptide 2 receptor)	1	0.7	6164
NAGA (alpha-N-acetylgalactosaminidase)	1	-0.34	5366
KRTAP9-3 (keratin associated protein 9-3)	1	-0.52	5416
SLC25A46	1	0.42	6608
C17orf78 (chromosome 17 open reading frame 78)	1	1.9	7130
TASP1 (taspase 1)	1	-0.86	4987
ABCA8 (ATP binding cassette subfamily A member 8)	1	-0.34	7384
RPS23 (ribosomal protein S23)	1	-2.28 (active)	4530
USP12 (ubiquitin specific peptidase 12)	1	0.34	4740
MED10 (mediator complex subunit 10)	1	0.2	6152
CDKN2AIP (CDKN2A interacting protein)	1	1.02	6958
TSNAXIP1 (translin associated factor X interacting protein 1)	1	0.76	5392
RAMP3 (receptor activity modifying protein 3)	1	-0.52	5792
C1QTNF8 (C1q and TNF related 8)	1	-0.75	6002
UPF1 (UPF1 RNA helicase and ATPase)	1	0.15	4110
STBD1 (starch binding domain 1)	1	-0.55	6050
NCOR2 (nuclear receptor corepressor 2)	1	0.29	6354
SCRN3 (secernin 3)	1	0.14	6310
BTBD16 (BTB domain containing 16)	1	1.01	5989
ZNF436 (zinc finger protein 436)	1	-0.64	6730
MTA3 (metastasis associated 1 family member 3)	1	-0.64	5956
SOFU1 (sperm-oocyte fusion factor 1)	1	-0.24	5570
BCL2A1 (BCL2 related protein A1)	1	2.25 (active)	6550
MYO1F (myosin IF)	1	-0.03	5400
HMGXB4 (HMG-box containing 4)	1	-0.18	6960
SERPINA1 (serpin family A member 1)	1	0.83	5626
UBALD1 (UBA like domain containing 1)	1	-1.73	6176
ZNF445 (zinc finger protein 445)	1	0.23	5796
TUB (TUB bipartite transcription factor)	1	-1.85	4238
BARX2 (BARX homeobox 2)	1	0.75	5818
CNTLN (centlein)	1	0.74	6315
KLHL35 (kelch like family member 35)	1	0.94	5720
ANKRD6 (ankyrin repeat domain 6)	1	0.28	6118

Called active, among the entries above:
Target gene	pool no.	migration robust z-score	nuclei per well, duplicate mean
RPS23 (ribosomal protein S23)	1	-2.28 (active)	4530
BCL2A1 (BCL2 related protein A1)	1	2.25 (active)	6550
